Assay results: PubChem BioAssay AID2685 (National Center for Advancing Translational Sciences (NCATS), 2010)
Some of the results follow. These are further read-outs of the screen, such as a control signal, another cell line or another target. No call is given for them. Compounds called inactive in the main read-out are mostly missing here. The note in brackets gives the kind of curve behind each potency; many fits are weak.

Assay: qHTS Assay for Lipid Storage Modulators in Drosophila S3 Cells;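 on cell number change: cells counted by Cell Tracker Red CMTPX staining in the red channel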
Settings: BODIPY lipid droplet fluorescence, 18-24 h; for cell number change: measured here: cell count max response, cells fed with added oleic acid
Summary of the method: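 Drosophila S3 cells loaded with oleic acid (400 uM, as added) and compounds at several concentrations; lipid droplets imaged by 488-nm laser-scanning cytometry, 500–530 nm intensity and object ratio to cell channel. Percent activity normalized to 20 uM Triacsin C.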

[1] = measured here: lipid fluorescence (Fed channel) AC50, cells fed with added oleic acid
[2] = measured here: cell number channel AC50, cells fed with added oleic acid

SMILES | cell number change [%] | AC50 [1] | AC50 [2]
CCOC(=O)c1ccc(Nc2ncnc3ccc(C)cc23)cc1 | 6.9 | 6.51 µM [rising, single point] | 
O=C(CN1CCN(C(=O)C2CCCO2)CC1)Nc1ccc(Cl)c(Cl)c1 (configuration not stated) | 6.91 | 0.58 µM [rising, single point] | 
COc1ccc(-c2nnc3sc(-c4ccco4)nn23)cc1OC | -28.5 |  | 
CCCOc1ccc(C(C)=O)cc1CC(C(N)=O)C(N)=O | -32.7 | 29.1 µM [falling, single point] | 4.61 µM [falling, full curve, poor fit]
O=C(Nc1ccnn1C1CCN(C(=O)Cc2cccc(Cl)c2)CC1)C1CC1 | 6.93 | 0.58 µM [falling, single point] | 
CCCCN1C(C)=CC(=C2C(=O)c3ccccc3C2=O)C=C1C | 38 |  | 29.1 µM [rising, single point]
CC1CC(C)CN(C(=O)C2CCN(S(=O)(=O)c3cccc4cccnc34)CC2)C1 (configuration not stated) |  | 29.1 µM [rising, single point] | 
CCN(CC)S(=O)(=O)c1cccc(-c2nnc(-c3ccc(C)cc3)o2)c1 | 5.24 | 6.51 µM [rising, single point] | 
CCCCCC1CC(=O)N(Cc2ccc(Cl)cc2)C(=O)N1 (configuration not stated) | -6.05 |  | 
COc1ccc(N2C(=O)CC(n3c(CCCCO)nc4ccccc43)C2=O)cc1 (configuration not stated) | 12.1 | 14.6 µM [rising, single point] | 
O=C(Nc1ccc(Cl)cc1)c1csc(Cc2ccccc2)n1 | -36.5 | 3.26 µM [falling, single point] | 5.17 µM [falling, single point]
O=C(CC1(O)C(=O)Nc2ccccc21)c1ccccc1 (configuration not stated) | -48 | 4.61 µM [falling, full curve] | 3.26 µM [falling, full curve, poor fit]
COCC1CCN(Cc2nc(-c3cccs3)no2)C1 (configuration not stated) | 2.89 |  | 
O=C(COc1ccccc1Br)c1ccc2c(c1)OCO2 | 25 |  | 
COc1ccc(-c2c(C#Cc3ccccc3)c3ccccc3n2C)cc1 | -17.7 |  | 
CCOC(=O)N1CCC(NC(=O)c2cc(S(=O)(=O)N3CCOCC3)ccc2F)CC1 | 6.09 |  | 1.16 µM [falling, single point]
COc1ccc(-c2ccc(NC(=O)c3ccc(Br)o3)cc2)nn1 | 36.9 |  | 0.411 µM [rising, full curve, poor fit]
O=C1C(c2ccc(F)cc2)N(Cc2ccc3c(c2)OCO3)C(=O)CN1C1CCCC1 (configuration not stated) | 6.73 | 1.64 µM [rising, partial curve] | 
O=C(CCC(=O)N1CCN(S(=O)(=O)c2ccc(Cl)cc2)CC1)Nc1ccc2ccccc2c1 | 17.6 | 8.2 µM [rising, partial curve] | 
Cn1nc(C(F)(F)F)c(C#N)c1N1CCN(c2ccccc2)CC1 | 38.7 |  | 0.58 µM [rising, full curve, poor fit]

SMILES | cell number change [%] | AC50 [1] | AC50 [2]
COc1ccccc1-n1c(C)nnc1SCC(=O)Nc1cc(C)cc(C)c1 |  | 0.291 µM [rising, full curve, poor fit] | 0.231 µM [rising, full curve, poor fit]
COc1ccc(CNC(=O)CN(C2CCCCC2)S(C)(=O)=O)cc1 | -31.8 | 1.3 µM [falling, partial curve, poor fit] | 20.6 µM [falling, partial curve]
O=C(COC(=O)CC1CC2CCC1C2)Nc1cc([N+](=O)[O-])ccc1F (configuration not stated) | -34 |  | 16.4 µM [falling, single point]
CC1CCN(C(=O)c2ccc(S(=O)(=O)N(C)C)cc2)C(C)C1 (configuration not stated) | -74.8 |  | 29.1 µM [falling, single point]
CN(CC(=O)NCCN1CCN(c2ccccc2)CC1)S(=O)(=O)c1ccc2c(c1)CCC(=O)N2 | 3.78 | 6.51 µM [falling, single point] | 
Cc1cc(Br)ccc1OCC(=O)NC1CCCC1 | -8.91 |  | 0.146 µM [rising, full curve, poor fit]
O=C(N/N=C/c1ccc[nH]1)c1ccc2c(c1)OCO2 |  |  | 1.84 µM [rising, partial curve]
Cc1ccc(C(=O)NC(C)(COc2nonc2C)COc2nonc2C)cc1 | -5.29 | 0.326 µM [rising, full curve] | 
CCOc1ccc(-n2nnnc2SCC(=O)NC2CCCC2)cc1 | -21.8 | 5.8 µM [rising, partial curve, poor fit] | 
CC(=O)c1c(C)[nH]c(C(=O)N2CCN(S(=O)(=O)c3ccc(C)cc3C)CC2)c1C | -10.9 |  | 
CCN1C=C(Cc2ccc(F)cc2)C2=C(C1)C(c1ccc(F)cc1)C(C#N)=C(N)O2 (configuration not stated) |  |  | 2.06 µM [rising, single point]
Cc1ccc(S(=O)(=O)Nc2cccc(C(=O)NCCCN3CCCC3=O)c2)cc1F |  |  | 6.51 µM [rising, single point]
Cc1[nH]c(=O)[nH]c(=O)c1S(=O)(=O)N1CCN(c2cccc(Cl)c2)CC1 | 3.65 | 0.0058 µM [rising, full curve, poor fit] | 
O=C(NCCOc1ccccc1)C(c1ccccc1)c1ccccc1 | 156 |  | 13 µM [rising, partial curve]
CC1=NN(C(=O)Cc2ccc(C)cc2)C(O)(c2cccnc2)C1 (configuration not stated) | 17.6 | 11.6 µM [rising, partial curve, poor fit] | 
N#Cc1cc2c([nH]c1=S)CCCCCC2 | 1.55 | 29.1 µM [rising, single point] | 
Cc1c(/C=N/NC(=O)c2ccc(O)cc2)c2ccccn2c1C(=O)c1ccc(F)cc1 | 11.1 | 29.1 µM [rising, single point] | 6.51 µM [rising, single point]
Cc1ccc(NS(=O)(=O)c2cc(C(=O)N3CCN(C)CC3)ccc2C)cc1 |  | 6.51 µM [falling, single point] | 
O=S(=O)(Cc1ccccc1)Oc1ccccc1 | -12.4 | 0.58 µM [rising, full curve, poor fit] | 
CCCN1C(=O)c2ccc(C(=O)Nc3ccc4c(c3)OCO4)cc2C1=O | 14.4 | 3.66 µM [rising, single point] | 

Reformatted: results already given
SMILES	cell number change [%]	AC50 [1]	AC50 [2]
COc1ccc(CNC(=O)CN(C2CCCCC2)S(C)(=O)=O)cc1	-31.8	1.3 µM [falling, partial curve, poor fit]	20.6 µM [falling, partial curve]
O=C(COC(=O)CC1CC2CCC1C2)Nc1cc([N+](=O)[O-])ccc1F (configuration not stated)	-34		16.4 µM [falling, single point]
CC1CCN(C(=O)c2ccc(S(=O)(=O)N(C)C)cc2)C(C)C1 (configuration not stated)	-74.8		29.1 µM [falling, single point]
CN(CC(=O)NCCN1CCN(c2ccccc2)CC1)S(=O)(=O)c1ccc2c(c1)CCC(=O)N2	3.78	6.51 µM [falling, single point]	
Cc1cc(Br)ccc1OCC(=O)NC1CCCC1	-8.91		0.146 µM [rising, full curve, poor fit]
O=C(N/N=C/c1ccc[nH]1)c1ccc2c(c1)OCO2			1.84 µM [rising, partial curve]
Cc1ccc(C(=O)NC(C)(COc2nonc2C)COc2nonc2C)cc1	-5.29	0.326 µM [rising, full curve]	
CCOc1ccc(-n2nnnc2SCC(=O)NC2CCCC2)cc1	-21.8	5.8 µM [rising, partial curve, poor fit]	
CC(=O)c1c(C)[nH]c(C(=O)N2CCN(S(=O)(=O)c3ccc(C)cc3C)CC2)c1C	-10.9		
CCN1C=C(Cc2ccc(F)cc2)C2=C(C1)C(c1ccc(F)cc1)C(C#N)=C(N)O2 (configuration not stated)			2.06 µM [rising, single point]
Cc1ccc(S(=O)(=O)Nc2cccc(C(=O)NCCCN3CCCC3=O)c2)cc1F			6.51 µM [rising, single point]
Cc1[nH]c(=O)[nH]c(=O)c1S(=O)(=O)N1CCN(c2cccc(Cl)c2)CC1	3.65	0.0058 µM [rising, full curve, poor fit]	
O=C(NCCOc1ccccc1)C(c1ccccc1)c1ccccc1	156		13 µM [rising, partial curve]
CC1=NN(C(=O)Cc2ccc(C)cc2)C(O)(c2cccnc2)C1 (configuration not stated)	17.6	11.6 µM [rising, partial curve, poor fit]	

Next part.

SMILES | cell number change [%] | AC50 [1] | AC50 [2]
O=C(NCCSCc1ccco1)Nc1ccc(Cl)cc1 | 82.3 | 23.1 µM [rising, partial curve] | 29.1 µM [rising, single point]
COc1ccccc1NC(=O)CSc1nnc(COc2ccc(Cl)cc2)o1 |  | 5.17 µM [falling, single point] | 
CC1=NOC(=O)/C1=C\c1ccc(-c2cc(Cl)ccc2Cl)o1 | -4.65 |  | 
COc1ccc(-c2csc(N(CCCN(C)C)C(=O)c3ccccc3C)n2)cc1 | 15.1 |  | 
CCN(CC)c1cc(C)c2cc(NC(=O)c3ccc(Br)o3)ccc2n1 | -17.4 | 2.91 µM [falling, full curve] | 
COC(=O)c1c(NC(=O)CN2CCC3(O)CCCCC3C2c2cc(OC)ccc2OC)sc(C)c1C (configuration not stated) | 28.7 | 4.11 µM [rising, full curve] | 2.31 µM [rising, full curve, poor fit]
COc1ccc(NC(=O)Cc2ccsc2)cc1S(=O)(=O)N1CCCCC1 | 3.62 | 2.06 µM [rising, partial curve] | 
COc1ccccc1OCCC(=O)OCC(=O)NCc1ccc(Cl)cc1 | -18.5 | 6.51 µM [falling, full curve] | 4.11 µM [falling, partial curve]
O=C(c1ccc([N+](=O)[O-])o1)N1CCN(c2nc3ccc(F)cc3s2)CC1 | 100 |  | 4.11 µM [rising, partial curve]
C[C@]12C=CC(=O)C=C1CC[C@@H]1C2C(O)C[C@@]2(C)C1CC[C@]2(O)C(=O)COC(=O)CCC(=O)NC(CC(=O)O)C(=O)O (some centres not stated) | -9 | 4.61 µM [falling, single point] | 
Cc1ccccc1CN1CCNC(=O)C1CC(=O)O (configuration not stated) | -42 | 20.6 µM [falling, partial curve] | 20.6 µM [falling, partial curve, poor fit]
Cc1ccc(C2=NCCn3c2c2ccccc2[n+]3[O-])cc1 | 20.1 | 0.146 µM [falling, full curve, poor fit] | 0.146 µM [falling, full curve, poor fit]
Cc1ccc(C(=O)NC(NC(=S)Nc2ccc(S(N)(=O)=O)cc2)C(Cl)(Cl)Cl)cc1 (configuration not stated) | 159 | 29.1 µM [rising, single point] | 20.6 µM [rising, single point]
Cc1ccc(C)c(Cn2nnc3c(=O)[nH]c(C4CCCN(C(=O)C5CCC5)C4)nc32)c1 (configuration not stated) | -21.4 | 0.146 µM [rising, full curve, poor fit] | 
COCCn1c(SCC(=O)NCc2ccco2)nc2cccnc21 | 11.4 |  | 
COc1ccc(C)cc1-n1nnnc1SCC(=O)c1cc(C)n(Cc2ccco2)c1C |  | 16.4 µM [rising, partial curve] | 1.84 µM [rising, partial curve]
CSc1cccc(NC(=O)Cn2cnc(S(=O)(=O)N3CCCC3)c2)c1 | -8.06 | 0.00517 µM [falling, full curve, poor fit] | 
O=[N+]([O-])c1ccccc1OCC(O)CN1CCN(CC(O)COc2ccccc2[N+](=O)[O-])CC1 (configuration not stated) | -15.2 |  | 
CC(C)Cc1nnc(NC(=O)CCC(=O)N2CCN(c3ccc(Cl)cc3)CC2)s1 | -2.09 |  | 
